# These are yes or no findings as the source states them, for the method shown.
# T1: prf.GLFG_(52 × 12)
# T1 construct: engineered from the Tetrahymena thermophila MacNup98A FG domain; plasmid pSNG064; Isotope-labelled (15N, 13C) for NMR; also called perfect repeat; source: E. coli, inclusion bodies, Ni(II) chelate column, tag cut off with bdSENP1 protease, lyophilized; not shown: His14-ZZ-scSUMO, N-terminal, cleaved
# T1 chain: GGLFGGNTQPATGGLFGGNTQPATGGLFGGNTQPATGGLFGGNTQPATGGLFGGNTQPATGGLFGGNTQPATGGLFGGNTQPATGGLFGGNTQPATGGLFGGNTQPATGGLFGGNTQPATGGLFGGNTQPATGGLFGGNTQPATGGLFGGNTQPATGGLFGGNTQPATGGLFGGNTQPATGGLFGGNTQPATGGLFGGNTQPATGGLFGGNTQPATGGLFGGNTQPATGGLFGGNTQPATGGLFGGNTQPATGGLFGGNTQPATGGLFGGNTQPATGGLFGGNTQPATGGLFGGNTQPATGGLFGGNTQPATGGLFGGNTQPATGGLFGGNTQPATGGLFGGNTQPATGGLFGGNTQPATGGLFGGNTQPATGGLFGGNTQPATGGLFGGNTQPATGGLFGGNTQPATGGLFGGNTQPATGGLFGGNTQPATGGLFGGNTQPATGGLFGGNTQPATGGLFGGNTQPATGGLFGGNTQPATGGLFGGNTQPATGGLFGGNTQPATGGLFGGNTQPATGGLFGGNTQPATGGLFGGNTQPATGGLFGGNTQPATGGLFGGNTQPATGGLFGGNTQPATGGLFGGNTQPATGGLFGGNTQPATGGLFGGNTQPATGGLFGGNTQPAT
# Biological target: T1, prf.GLFG_(52 × 12)
# Assay: condition: only below the transition temperature (Tp) ~16 °C; dynamic light scattering; dilution of prf.GLFG_(52 × 12) in NaCl solution with 20 mM NaPi pH 6.8, temperature raised 1 °C per min from 2 to 40 °C; below the transition temperature (Tp ~16 °C); both purified
binder,measurement,value
prf.GLFG_(52 × 12) (protein) GGLFGGNTQPATGGLFGGNTQPATGGLFGGNTQPATGGLFGGNTQPATGGLFGGNTQPATGGLFGGNTQPATGGLFGGNTQPATGGLFGGNTQPATGGLFGGNTQPATGGLFGGNTQPATGGLFGGNTQPATGGLFGGNTQPATGGLFGGNTQPATGGLFGGNTQPATGGLFGGNTQPATGGLFGGNTQPATGGLFGGNTQPATGGLFGGNTQPATGGLFGGNTQPATGGLFGGNTQPATGGLFGGNTQPATGGLFGGNTQPATGGLFGGNTQPATGGLFGGNTQPATGGLFGGNTQPATGGLFGGNTQPATGGLFGGNTQPATGGLFGGNTQPATGGLFGGNTQPATGGLFGGNTQPATGGLFGGNTQPATGGLFGGNTQPATGGLFGGNTQPATGGLFGGNTQPATGGLFGGNTQPATGGLFGGNTQPATGGLFGGNTQPATGGLFGGNTQPATGGLFGGNTQPATGGLFGGNTQPATGGLFGGNTQPATGGLFGGNTQPATGGLFGGNTQPATGGLFGGNTQPATGGLFGGNTQPATGGLFGGNTQPATGGLFGGNTQPATGGLFGGNTQPATGGLFGGNTQPATGGLFGGNTQPATGGLFGGNTQPATGGLFGGNTQPAT,binding,no binding

# Reference: PMC8938434, “Atomic resolution dynamics of cohesive interactions in phase-separated Nup98 FG domains” (Nature Communications, 2022)
